Experimental data reported in article PMC5069690, “Hepatic 3D spheroid models for the detection and study of compounds with cholestatic liability” (Scientific Reports, 2016).

Test system: multi-donor PHH spheroids
Assay: Repeated-exposure toxicity in multi-donor PHH spheroids with or without BA mixture, albumin secretion
Assay type: cell-based
Settings: Homo sapiens, 336 h, multi-donor PHH spheroids (10 donors), 14 days repeated exposure, co-exposure with BA mixture
Description: The cells were seeded in PHH medium (Williams’ medium E containing 100 units/ml penicillin, 100 μg/ml streptomycin, 2 mM L-glutamine, 10 μg/ml insulin, 5.5 μg/ml transferrin, 6.7 ng/ml sodium selenite, 100 nM dexamethasone) supplemented with 10% fetal bovine serum. […] When PHH had reassembled into compact aggregates (day 4–6 after seeding), spheroids were shifted to serum-free PHH medium. […] The spheroids were maintained in serum-free PHH medium.
Toxicity studies were started at day 8 and day 5 for PHH and HepaRG spheroids, respectively.

CCCCc1oc2ccccc2c1C(=O)c1cc(I)c(OCCN(CC)CC)c(I)c1 [Amiodarone, amiodarone]
EC50: 4.4 µM
